From paper PMC7615196, “PIM1 controls GBP1 activity to limit self-damage and to guard against pathogen infection” (Science (New York, N.Y.), 2023)

Amino acid sequences for entries named in this document (tags omitted). Residues count along the entry.
UniProt P31946: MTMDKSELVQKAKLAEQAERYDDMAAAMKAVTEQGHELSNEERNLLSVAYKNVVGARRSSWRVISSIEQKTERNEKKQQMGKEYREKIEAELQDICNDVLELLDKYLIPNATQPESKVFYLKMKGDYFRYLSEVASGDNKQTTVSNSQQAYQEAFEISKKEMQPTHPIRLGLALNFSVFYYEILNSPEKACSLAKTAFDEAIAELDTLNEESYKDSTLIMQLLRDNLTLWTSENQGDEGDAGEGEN
UniProt P63104: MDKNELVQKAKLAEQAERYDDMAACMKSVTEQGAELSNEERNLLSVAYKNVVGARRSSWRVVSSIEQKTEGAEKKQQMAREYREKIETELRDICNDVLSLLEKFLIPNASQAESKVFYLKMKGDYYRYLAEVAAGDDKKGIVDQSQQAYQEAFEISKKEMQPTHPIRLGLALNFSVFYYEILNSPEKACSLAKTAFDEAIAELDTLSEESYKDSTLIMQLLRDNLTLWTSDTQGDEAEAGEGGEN
UniProt F2YGR7, residues 25-549: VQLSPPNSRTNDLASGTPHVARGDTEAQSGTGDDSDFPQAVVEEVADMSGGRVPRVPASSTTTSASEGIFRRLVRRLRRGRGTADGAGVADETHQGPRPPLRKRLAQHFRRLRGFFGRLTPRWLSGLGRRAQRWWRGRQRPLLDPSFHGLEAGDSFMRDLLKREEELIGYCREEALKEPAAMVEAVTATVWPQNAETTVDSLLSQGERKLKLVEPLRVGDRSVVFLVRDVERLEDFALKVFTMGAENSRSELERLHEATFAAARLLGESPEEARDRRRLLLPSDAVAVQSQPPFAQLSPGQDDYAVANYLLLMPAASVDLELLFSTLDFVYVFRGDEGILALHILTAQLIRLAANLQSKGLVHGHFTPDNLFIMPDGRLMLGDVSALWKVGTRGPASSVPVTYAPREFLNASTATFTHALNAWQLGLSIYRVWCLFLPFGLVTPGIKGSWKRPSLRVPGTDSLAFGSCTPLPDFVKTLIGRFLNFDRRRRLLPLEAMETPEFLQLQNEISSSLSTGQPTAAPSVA

molecular target: T1, Flag-GBP1 WT (THP-1ΔGBP1+Tet-Flag-GBP1 cells) (human) (UniProt P32455); experiment: affinity purification with mass spectrometry; Flag-immunoprecipitation from IFNγ (CTRL) or IFNγ+Dox-treated THP-1ΔGBP1+Flag-GBP1 cells, uninfected or infected with Tg WT; lysis buffer 1% Triton X-100, 20 mM Tris-HCl pH 8.0, 130 mM NaCl; LFQ
T1 sequence: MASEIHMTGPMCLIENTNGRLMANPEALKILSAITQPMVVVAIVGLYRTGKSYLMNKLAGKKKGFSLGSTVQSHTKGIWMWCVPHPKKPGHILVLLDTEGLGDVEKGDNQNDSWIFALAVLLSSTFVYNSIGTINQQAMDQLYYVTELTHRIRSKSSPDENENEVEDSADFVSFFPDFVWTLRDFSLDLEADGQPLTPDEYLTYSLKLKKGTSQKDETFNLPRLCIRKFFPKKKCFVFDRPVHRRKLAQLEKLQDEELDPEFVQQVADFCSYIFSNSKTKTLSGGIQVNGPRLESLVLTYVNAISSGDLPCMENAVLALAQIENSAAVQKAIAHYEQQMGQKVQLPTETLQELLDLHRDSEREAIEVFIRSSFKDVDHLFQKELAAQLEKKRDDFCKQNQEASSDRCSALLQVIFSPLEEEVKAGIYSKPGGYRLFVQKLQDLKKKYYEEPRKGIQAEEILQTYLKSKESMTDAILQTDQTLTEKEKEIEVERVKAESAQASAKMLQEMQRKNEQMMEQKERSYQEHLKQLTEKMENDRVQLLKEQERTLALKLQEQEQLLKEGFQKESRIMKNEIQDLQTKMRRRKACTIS

| binding | Substance |
| --- | --- |
| binds | 14-3-3β (endogenous, THP-1 cells) (from UniProt P31946 1-246) |
| binds | 14-3-3ζ (endogenous, THP-1 cells) (from UniProt P63104 1-245) |

| Substance | binding |
| --- | --- |
| parasite-derived TgROP5 (from UniProt F2YGR7 25-549) | binds |

Results are given in words; binding and its absence hold for the method and conditions named. Binding seen in cells or lysates may run through a third protein. These calls come from enrichment with a bait or labelling near it, and not all partners need be listed. Where a sequence is shown, tags or fusion partners need not be part of it.
